In publication doi:10.1101/2025.04.27.650851:
These are yes or no findings as the source states them, for the method shown. In cells and extracts the contact can be indirect. These calls come from enrichment with a bait or labelling near it, and not all partners need be listed. Values belong to the molecule of their own block, whether it stands above or below them.

The chains behind the UniProt entries cited, without tags or fusion partners.
UniProt O60264: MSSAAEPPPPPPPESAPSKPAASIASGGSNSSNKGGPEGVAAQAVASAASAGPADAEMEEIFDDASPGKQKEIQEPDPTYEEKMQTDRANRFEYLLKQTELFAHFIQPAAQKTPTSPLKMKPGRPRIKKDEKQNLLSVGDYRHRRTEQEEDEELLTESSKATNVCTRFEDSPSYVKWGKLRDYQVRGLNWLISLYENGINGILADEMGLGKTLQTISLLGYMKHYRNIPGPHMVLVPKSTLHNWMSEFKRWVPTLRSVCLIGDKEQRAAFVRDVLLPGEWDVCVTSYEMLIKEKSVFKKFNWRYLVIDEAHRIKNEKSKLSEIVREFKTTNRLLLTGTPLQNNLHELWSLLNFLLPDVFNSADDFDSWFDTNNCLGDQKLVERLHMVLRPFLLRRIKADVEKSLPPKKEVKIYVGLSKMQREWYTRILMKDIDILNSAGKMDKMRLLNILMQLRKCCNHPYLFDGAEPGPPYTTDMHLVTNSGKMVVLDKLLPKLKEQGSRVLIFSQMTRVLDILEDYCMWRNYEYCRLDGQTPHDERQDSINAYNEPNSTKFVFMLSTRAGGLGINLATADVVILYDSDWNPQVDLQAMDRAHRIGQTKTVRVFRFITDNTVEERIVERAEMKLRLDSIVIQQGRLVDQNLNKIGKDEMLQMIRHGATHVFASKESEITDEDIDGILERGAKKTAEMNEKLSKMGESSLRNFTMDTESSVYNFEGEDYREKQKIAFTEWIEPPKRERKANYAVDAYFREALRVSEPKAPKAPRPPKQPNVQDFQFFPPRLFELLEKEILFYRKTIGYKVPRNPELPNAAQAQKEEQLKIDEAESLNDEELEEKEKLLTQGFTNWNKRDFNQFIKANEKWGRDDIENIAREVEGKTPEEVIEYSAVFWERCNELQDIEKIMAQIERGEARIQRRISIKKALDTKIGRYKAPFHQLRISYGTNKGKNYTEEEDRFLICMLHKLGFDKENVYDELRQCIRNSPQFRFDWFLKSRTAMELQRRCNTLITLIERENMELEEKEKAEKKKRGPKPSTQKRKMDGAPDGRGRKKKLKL

Target: T1, CTCF-TurboID (UniProt P49711)
T1 sequence: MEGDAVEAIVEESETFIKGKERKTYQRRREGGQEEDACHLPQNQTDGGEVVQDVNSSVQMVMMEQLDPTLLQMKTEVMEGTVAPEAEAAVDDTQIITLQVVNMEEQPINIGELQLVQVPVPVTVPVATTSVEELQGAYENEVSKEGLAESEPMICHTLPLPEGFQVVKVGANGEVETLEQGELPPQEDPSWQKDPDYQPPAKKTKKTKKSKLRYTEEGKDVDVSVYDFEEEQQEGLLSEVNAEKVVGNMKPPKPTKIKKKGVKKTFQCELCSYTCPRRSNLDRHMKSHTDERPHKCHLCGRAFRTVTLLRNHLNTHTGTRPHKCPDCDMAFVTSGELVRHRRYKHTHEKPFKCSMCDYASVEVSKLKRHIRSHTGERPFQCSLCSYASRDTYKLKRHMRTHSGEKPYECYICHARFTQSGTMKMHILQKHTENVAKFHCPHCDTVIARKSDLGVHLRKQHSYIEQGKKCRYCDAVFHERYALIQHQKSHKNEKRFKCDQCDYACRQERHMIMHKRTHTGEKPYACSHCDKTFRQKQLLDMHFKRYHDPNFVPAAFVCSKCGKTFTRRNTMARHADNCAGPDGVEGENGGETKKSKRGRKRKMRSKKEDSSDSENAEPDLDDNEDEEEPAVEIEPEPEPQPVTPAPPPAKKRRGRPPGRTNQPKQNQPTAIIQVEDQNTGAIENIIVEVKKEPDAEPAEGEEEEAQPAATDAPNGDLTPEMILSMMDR
Test: proximity labelling

binding: binds
Molecule: SMARCA5 (from UniProt O60264 1-1052)

binding: binds
B1: ZNF280C (protein, UniProt Q8ND82 1-737)
chain: MDDDKPFQPKNISKMAELFMECEEEELEPWQKKVEETQDEDDDELIFVGEISSSKPAISNILNRGHSSSSSKGIKSEPHSPGIPEIFRTASQRCRDPPSNPVAASPRFHLVSKSSQSSVTVENASKPDFTKNSQVGSDNSSILLFDSTQESLPPSQDIPAIFREGMKNTSYVLKHPSTSKVNSVTPKKPKTSEDVPQINPSTSLPLIGSPPVTSSQVMLSKGTNTSSPYDAGADYLRACPKCNVQFNLLDPLKYHMKHCCPDMITKFLGVIVKSERPCDEDKTDSETGKLIMLVNEFYYGRHEGVTEKEPKTYTTFKCFSCSKVLKNNIRFMNHMKHHLELEKQNNESWENHTTCQHCYRQYPTPFQLQCHIESTHTPHEFSTICKICELSFETEHILLQHMKDTHKPGEMPYVCQVCQFRSSTFSDVEAHFRAAHENTKNLLCPFCLKVSKMATPYMNHYMKHQKKGVHRCPKCRLQFLTSKEKAEHKAQHRTFIKPKELEGLPPGAKVTIRASLGPLQSKLPTAPFGCAPGTSFLQVTPPTSQNTTARNPRKSNASRSKTSKLHATTSTASKVNTSKPRGRIAKSKAKPSYKQKRQRNRKNKMSLALKNIRCRRGIHKCIECHSKIKDFASHFSIYIHCSFCKYNTNCNKAFVNHMMSSHSNHPGKRFCIFKKHSGTLRGITLVCLKCDFLADSSGLDRMAKHLSQRKTHTCQVIIENVSKSTSTSEPTTGCSLK
